No constants are given. Whether binding was seen depends on the method and setting. Binding seen in cells or lysates may run through a third protein. Some binding calls cover weakened binding; strength is not graded here.
Molecular target: GFP-ABCG4 (UniProt Q9H172)
Test: co-IP; HEK293 co-transfected with the GFP-tagged and the untagged protein (untagged in excess), lysed 24 h after transfection in 50 mM Tris pH 7.4, 150 mM NaCl, 0.5% NP-40; precipitated with anti-GFP on protein G-sepharose, 2 h at 4°C; Western blot of the precipitate

The chains behind the UniProt entries cited, without tags or fusion partners. Where a name states a change or a piece, a line headed by the entry shows the natural chain unless it says otherwise.
UniProt Q9H172: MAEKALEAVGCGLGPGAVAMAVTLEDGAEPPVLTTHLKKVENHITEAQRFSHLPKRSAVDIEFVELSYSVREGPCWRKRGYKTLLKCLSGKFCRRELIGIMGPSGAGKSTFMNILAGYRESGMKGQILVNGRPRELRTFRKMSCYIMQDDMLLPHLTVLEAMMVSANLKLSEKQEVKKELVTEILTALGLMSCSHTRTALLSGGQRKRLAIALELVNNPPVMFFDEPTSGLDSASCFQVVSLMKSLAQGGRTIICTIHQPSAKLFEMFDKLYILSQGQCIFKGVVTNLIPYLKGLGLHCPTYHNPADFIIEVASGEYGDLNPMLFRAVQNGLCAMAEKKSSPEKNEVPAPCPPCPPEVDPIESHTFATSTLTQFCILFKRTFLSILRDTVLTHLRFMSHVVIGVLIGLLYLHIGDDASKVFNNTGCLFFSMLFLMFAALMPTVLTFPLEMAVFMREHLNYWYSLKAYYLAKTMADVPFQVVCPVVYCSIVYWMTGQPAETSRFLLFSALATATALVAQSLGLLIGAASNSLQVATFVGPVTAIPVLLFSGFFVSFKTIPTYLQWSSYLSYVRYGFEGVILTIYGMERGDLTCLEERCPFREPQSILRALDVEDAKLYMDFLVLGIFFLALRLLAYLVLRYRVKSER

How did the binding turn out when “ABCG4 (wild type, untagged) (from UniProt Q9H172-1 1-646)” was run?
The binding was “binds”.

Reference: article PMC4882005
